Measurements taken from patent publication US20030004317A1 (GlaxoSmithKline, published 2003).
No constants are given. Whether binding was seen depends on the method and setting. Binding calls can cover weak binding; strength is not graded here.

Legend:
[1] = target: human αvβ3 receptor protein purified from human placenta (human); experiment: Specificity row, summary of the ELISAs
[2] = target: human αvβ5 receptor protein purified from human placenta (human); experiment: Specificity row, summary of the ELISAs
[3] = target: human αvβ3 receptor protein purified from human placenta (human); experiment: solid phase ELISA on purified human placenta receptor
[4] = target: human αvβ5 receptor protein purified from human placenta (human); experiment: as above

Measured: binding

B1: murine monoclonal antibody B9 (antibody, mouse IgG1, V domains shown)
VH: QVQLQQSGAELMKPGASVKISCKATGYTFSSYWIEWVKQRPGHGLEWIGEILPRSGNTNYNEKFKGKATFTAETSSNTAYMQLSSLTPEDSAVYYCSSRGVRGSMDYWGQGTSVTVSS
VL: DIQMTQTTSSLSASLGDRVTITCRSSQDISNFLNWYQQKPDGTVKLLIYYTSTLHSGVPSRFSGSGSGTDYSLTISNLEQEDIATYFCQQGNTLPWTFGGGTNLEIKR
notes: also called mAb B9; Murine B9
binds: [1] | [2] | [3] | [4]
